The results in this text go back to paper PMC8913359.

Sequences of proteins named here, by UniProt entry; tags and fusion partners are left off.
UniProt Q96DH6: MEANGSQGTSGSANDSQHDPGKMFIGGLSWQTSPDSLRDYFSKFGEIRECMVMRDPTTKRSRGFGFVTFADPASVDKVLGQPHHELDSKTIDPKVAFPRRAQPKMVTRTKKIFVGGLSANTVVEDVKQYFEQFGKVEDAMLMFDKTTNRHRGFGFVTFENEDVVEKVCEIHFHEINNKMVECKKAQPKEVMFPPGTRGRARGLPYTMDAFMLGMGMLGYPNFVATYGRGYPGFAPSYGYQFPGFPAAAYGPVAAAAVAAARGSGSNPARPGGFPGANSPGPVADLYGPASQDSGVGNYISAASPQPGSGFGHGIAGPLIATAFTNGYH

Results are given in words; binding and its absence hold for the method and conditions named. In cells and extracts the contact can be indirect. Some entries that bind do so weakly or less than the wild type. For part of these data: Where a sequence is shown, tags or fusion partners need not be part of it.

Assay [1] concerns the target T1, Flag-LIN28A (human) (UniProt Q9H9Z2).
T1 sequence: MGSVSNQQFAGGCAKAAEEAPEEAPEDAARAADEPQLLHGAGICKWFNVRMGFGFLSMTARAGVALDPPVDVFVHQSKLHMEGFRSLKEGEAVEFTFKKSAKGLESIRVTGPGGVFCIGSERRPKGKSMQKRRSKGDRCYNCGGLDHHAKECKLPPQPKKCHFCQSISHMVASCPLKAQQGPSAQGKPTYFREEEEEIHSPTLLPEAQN
Nature of the assay: co-IP; MCF-10A cells; no panel is named for these cells.

In assay [2] the target is T1, Flag-LIN28A (human). The assay is described as follows: co-IP; Flag-IP from lysates of CAL51 cells stably expressing the Flag-tagged protein; anti-FLAG M2 magnetic beads overnight at 4 °C; 50 mM Tris-HCl pH 7.5, 100 mM NaCl, 1% Triton X-100, 0.1 mM EDTA, 0.5 mM MgCl2, 10% glycerol; four washes; Western blot.
In assay [3] the target is T2, Flag-LIN28B (human) (UniProt Q6ZN17).
T2 sequence: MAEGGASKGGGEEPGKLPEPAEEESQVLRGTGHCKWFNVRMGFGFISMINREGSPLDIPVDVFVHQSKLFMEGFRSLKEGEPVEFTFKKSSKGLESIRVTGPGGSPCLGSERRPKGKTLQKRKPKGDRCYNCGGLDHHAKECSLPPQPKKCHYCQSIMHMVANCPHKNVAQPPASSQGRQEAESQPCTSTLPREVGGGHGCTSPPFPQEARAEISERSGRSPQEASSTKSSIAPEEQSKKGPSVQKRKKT
Described as above.

In assay [4] the target is T3, LIN28A (endogenous) (human (endogenous in CAL51)) (UniProt Q9H9Z2).
T3 sequence: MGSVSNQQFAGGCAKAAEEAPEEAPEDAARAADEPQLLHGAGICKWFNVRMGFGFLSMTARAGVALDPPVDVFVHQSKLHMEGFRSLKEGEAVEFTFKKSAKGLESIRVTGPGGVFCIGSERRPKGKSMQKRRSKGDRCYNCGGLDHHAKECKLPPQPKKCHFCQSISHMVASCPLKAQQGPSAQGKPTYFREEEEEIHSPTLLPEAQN
The assay is described as follows: co-IP; endogenous proteins in CAL51 cells; Western blot. Background: A western blot detects proteins with antibodies after separation by electrophoresis.

Assay [5] has as its target T4, FLAG-tagged LIN28A (human) (UniProt Q9H9Z2).
T4 sequence: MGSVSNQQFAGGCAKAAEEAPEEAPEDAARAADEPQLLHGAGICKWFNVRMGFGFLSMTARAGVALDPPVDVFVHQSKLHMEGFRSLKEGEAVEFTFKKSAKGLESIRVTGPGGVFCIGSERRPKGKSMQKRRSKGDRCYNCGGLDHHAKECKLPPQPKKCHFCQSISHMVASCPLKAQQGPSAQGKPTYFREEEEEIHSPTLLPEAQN
The assay is described as follows: co-IP; exogenous tagged proteins (full-length and truncated constructs) transfected into 293T cells; Western blot.

The target in assay [6] is Flag-MSI2 (human) (UniProt Q96DH6). The assay is described as follows: co-IP; Flag-IP from lysates of CAL51 cells stably expressing the Flag-tagged protein; anti-FLAG M2 magnetic beads overnight at 4 °C; 50 mM Tris-HCl pH 7.5, 100 mM NaCl, 1% Triton X-100, 0.1 mM EDTA, 0.5 mM MgCl2, 10% glycerol; four washes; Western blot.

Take “MSI2 (endogenous) (from UniProt Q96DH6 1-328)”: the binding result in assay [1], in assay [2], in assay [3] and in assay [4] was “binds” each time.

For the molecule “MYC-tagged MSI2 (from UniProt Q96DH6 1-328)”, the binding result in assay [5] is given as “binds”.

B1: LIN28A (endogenous) (protein, UniProt Q9H9Z2 1-209)
chain: MGSVSNQQFAGGCAKAAEEAPEEAPEDAARAADEPQLLHGAGICKWFNVRMGFGFLSMTARAGVALDPPVDVFVHQSKLHMEGFRSLKEGEAVEFTFKKSAKGLESIRVTGPGGVFCIGSERRPKGKSMQKRRSKGDRCYNCGGLDHHAKECKLPPQPKKCHFCQSISHMVASCPLKAQQGPSAQGKPTYFREEEEEIHSPTLLPEAQN
For the molecule B1, in assay [6], the binding result is recorded as “binds”.
